The values below come from US20260079169A1, “VOLATILE ORGANIC COMPOUNDS AS MARKERS FOR CELLULAR COMMUNICATION” (Technion Research and Development Foundation Limited, priority 2020, published 2026).

The amount applied is not stated for every result.

For data set [1], the system named is A549, H1299, H1975 human lung cancer lines and BEAS-2B normal cell line, each cultured alone. Briefly: VOCs headspace analysis (ITEX GC-MS) of mono-culture groups (Format-1), bulk cell samples 1×10^4 cells. It is filed as cell-based.
Data set [2] has as its system different-cell pairs of BEAS-2B, A549, H1299, H1975 without physical contact under a mutual headspace. Briefly: VOCs headspace analysis (ITEX GC-MS) of different-cell pair co-culture headspace groups (Format-3), bulk cell samples. It is filed as cell-based, human.
The mark [3] stands for this setting: A (BEAS-2B) mono-culture, bulk 1 × 10^4 cell.
Where [4] appears, read: B (A549) mono-culture, bulk 1 × 10^4 cell.
The mark [5] stands for this setting: C (H1299) mono-culture, bulk 1 × 10^4 cell.
Where [6] appears, read: D (H1975) mono-culture, bulk 1 × 10^4 cell.
Setting [7] is: A + B (BEAS-2B + A549), bulk 1 × 10^4 cell.
[8] abbreviates: A + C (BEAS-2B + H1299), bulk 1 × 10^4 cell.
Setting [9] is: A + D (BEAS-2B + H1975), bulk 1 × 10^4 cell.
The mark [10] stands for this setting: B + C (A549 + H1299), bulk 1 × 10^4 cell.
Where [11] appears, read: B + D (A549 + H1975), bulk 1 × 10^4 cell.
The mark [12] stands for this setting: C + D (H1299 + H1975), bulk 1 × 10^4 cell.

With `CCCCCC(C)CC(C)(C)CC` (centres unmarked) [VOC31], the “VOC level in headspace, area under curve (AUC) normalized by STD AUC” value (from here on “VOC level … (AUC) normalized by STD AUC”) in data set [1] (setting [3]) came out at 2.549; in data set [1] (setting [4]), 0; in data set [1] (setting [5]), 1.1004; in data set [1] (setting [6]), 0; in data set [2] (setting [7]), 4.957; in data set [2] (setting [8]) it was 6.855. The “VOC level … (AUC) normalized by STD AUC” value is reported as 2.1471 in data set [2] (setting [9]), 0 in data set [2] (setting [10]), 0 in data set [2] (setting [11]) and 1.906 in data set [2] (setting [12]).
Consider `CCCCCC(C)CCC(C)CC` (centres unmarked) [VOC60], for which the “VOC level … (AUC) normalized by STD AUC” value in data set [1] (setting [3]) stood at 0; in data set [1] (setting [5]) it was 7.5739; in data set [1] (setting [6]) it was 5.675; in data set [2] (setting [7]), 0; in data set [2] (setting [8]), 3.113; in data set [2] (setting [9]) it was 0. The “VOC level … (AUC) normalized by STD AUC” value in data set [2] (setting [10]) is 2.263; in data set [2] (setting [11]), 0; in data set [2] (setting [12]), 7.462.
Consider `CCCCCCCCCCCCCCCC(=O)OCCCC` [VOC19], for which the “VOC level … (AUC) normalized by STD AUC” value in data set [1] (setting [3]), in data set [1] (setting [4]), in data set [1] (setting [5]), in data set [1] (setting [6]), in data set [2] (setting [7]) and in data set [2] (setting [8]) was 0 throughout. Besides, the “VOC level … (AUC) normalized by STD AUC” value in data set [2] (setting [9]), in data set [2] (setting [10]), in data set [2] (setting [11]) and in data set [2] (setting [12]) was 0 throughout.
Take `Cc1ccc(CO)cc1` [4-Methylbenzyl alcohol]: the “Category (VOC increased or decreased relative to the control)” value is recorded as “↑* (↑*: <0.01)” in data set [1] (mono-culture groups (Format-1), 48 h incubation, averaged peak area (n = 3)) and “↑* (↑*: <0.01)” in data set [2] (different-cell pair co-culture headspace (Format-3), 48 h, averaged peak area (n = 3)).
Take `COC` [VOC59]: the “VOC level … (AUC) normalized by STD AUC” value in data set [1] (setting [3]) came out at 5.451; in data set [1] (setting [4]), 5.822; in data set [1] (setting [5]) it was 0; in data set [1] (setting [6]), 0; in data set [2] (setting [7]), 7.869; in data set [2] (setting [8]) it was 2.242. The “VOC level … (AUC) normalized by STD AUC” value in data set [2] (setting [9]) is given as 0; in data set [2] (setting [10]) it was 1.04; in data set [2] (setting [11]), 0; in data set [2] (setting [12]), 0.
Regarding `CC=O` [VOC102], the “VOC area under curve (AUC) normalized by STD AUC, A” value in data set [1] (bulk 1 × 10^4 cell, A: BEAS-2B mono-culture headspace) stood at 7.237. Further, the “VOC area under curve (AUC) normalized by STD AUC, B” value in data set [1] (bulk 1 × 10^4 cell, B: A549 mono-culture headspace) was determined as 0. Besides, in data set [1] (bulk 1 × 10^4 cell, C: H1299 mono-culture headspace), the “VOC area under curve (AUC) normalized by STD AUC, C” value stood at 4.0608. For the same molecule, the “VOC area under curve (AUC) normalized by STD AUC, B + C” value in data set [2] (bulk 1 × 10^4 cell, A549 + H1299) worked out at 0. In data set [2] (bulk 1 × 10^4 cell, A549 + H1975), the “VOC area under curve (AUC) normalized by STD AUC, B + D” value was 0. Moreover, the “VOC area under curve (AUC) normalized by STD AUC, A + B” value in data set [2] (bulk 1 × 10^4 cell, BEAS-2B + A549) came out at 2.115. The “VOC area under curve (AUC) normalized by STD AUC, A + C” value in data set [2] (bulk 1 × 10^4 cell, BEAS-2B + H1299) worked out at 9.268. Besides, the “VOC area under curve (AUC) normalized by STD AUC, A + D” value in data set [2] (bulk 1 × 10^4 cell, BEAS-2B + H1975) was 3.917. For the same molecule, the “VOC area under curve (AUC) normalized by STD AUC, C + D” value in data set [2] (bulk 1 × 10^4 cell, H1299 + H1975) was 2.629.
